From PubChem BioAssay AID272 (DTP/NCI, 2004)
The list is a part of this screen's results and no random one: it is rich in T/C values a quarter to a half above the control, in often repeated tests (any T/C) and in doses without a T/C. Other doses and runs of a compound stand elsewhere. T/C is the treated group as % of the vehicle group. Some doses have a count of surviving animals in place of a T/C: the source files T/C as zero there, which appears to mark a toxic dose or a test without result, not a measured value. Some survivor counts are full or nearly so, which does not show that the dose was tolerated: survival well below the control is almost never listed, so the zero probably covers shortened survival too. Counts of survivors are from the toxicity check (mostly the fifth day) where no day follows; animals may have died later. Schedule codes are those of the source, read here as Q, the interval in days (D) or hours (H), X, the number of doses. Some doses were run more than once; the results are listed from low to high. Signs of the kind (2×) count equal records among those shown. Where survival is the endpoint, the PubChem record calls one and a half times the control and up active, and a quarter to a half above the control has no call in these data; cut-offs in other NCI protocols can differ. Some T/C values are followed by the survivors on the day toxicity was checked, most often the fifth; where none is given, no animal had died by that day.

Tested on: Lewis lung carcinoma i.m., BDF1 mice, T/C %
Assay: NCI In Vivo Anticancer Drug Screen. Data for tumor model Lewis Lung Carcinoma (intramuscular) in B6D2F1 (BDF1) mice
In short: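 Mice carrying transplantable tumours received test compound. Survival or tumour size was recorded and expressed as the treated-group value (T) divided by the vehicle-treated control-group value (C).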

[1] = T/C endpoint: median survival time, dose: 3.12 mg/kg/injection, schedule: Q01DX011 (ip), vehicle: other, higher T/C = longer survival
[2] = T/C endpoint: median survival time, dose: 6.25 mg/kg/injection, schedule: Q01DX011 (ip), vehicle: other, higher T/C = longer survival
[3] = T/C endpoint: median survival time, dose: 50.0 mg/kg/injection, schedule: Q01DX011 (ip), vehicle: other, higher T/C = longer survival
[4] = T/C endpoint: median survival time, dose: 4.0 mg/kg/injection, schedule: Q01DX011 (ip), vehicle: water, higher T/C = longer survival
[5] = T/C endpoint: median survival time, dose: 8.0 mg/kg/injection, schedule: Q01DX011 (ip), vehicle: water, higher T/C = longer survival

Compound: CCCCCCCCCCCCn1c(C)nc2ccccc21
- survivor count (T/C endpoint: median survival time, dose: 2.5 mg/kg/injection, schedule: Q01DX011 (ip), vehicle: saline, higher T/C = longer survival): 0 of 8
- survivor count (T/C endpoint: median survival time, dose: 5.0 mg/kg/injection, schedule: Q01DX011 (ip), vehicle: saline, higher T/C = longer survival): 0 of 8

Compound: Nc1n[nH]c(N)n1
- survivor count (T/C endpoint: mean tumor weight, dose: 500.0 mg/kg/injection, schedule: Q03HX024 (ip), vehicle: water, higher T/C = larger tumour): 3 of 8
- survivor count (T/C endpoint: mean tumor weight, dose: 1500.0 mg/kg/injection, schedule: Q01DX009 (ip), vehicle: water, higher T/C = larger tumour): 5 of 8
- survivor count (T/C endpoint: mean tumor weight, dose: 1500.0 mg/kg/injection, schedule: Q01DX011 (ip), vehicle: water, higher T/C = larger tumour): 5 of 8
- T/C (T/C endpoint: median survival time, dose: 1500.0 mg/kg/injection, schedule: Q01DX009 (ip), vehicle: water, higher T/C = longer survival): 126 % of control

Compound: Clc1nc2ccccc2nc1CI
- survivor count (T/C endpoint: mean tumor weight (est.), dose: 10.0 mg/kg/injection, schedule: Q01DX011 (ip), vehicle: saline, higher T/C = larger tumour): 5 of 8
- survivor count (T/C endpoint: median survival time, dose: 10.0 mg/kg/injection, schedule: Q01DX011 (ip), vehicle: saline, higher T/C = longer survival): 5 of 8
- survivor count (T/C endpoint: median survival time, dose: 20.0 mg/kg/injection, schedule: Q01DX011 (ip), vehicle: saline, higher T/C = longer survival): 2 of 8
- survivor count (T/C endpoint: median survival time, dose: 40.0 mg/kg/injection, schedule: Q01DX011 (ip), vehicle: saline, higher T/C = longer survival): 0 of 8

Compound: CSc1ncnc2nc[nH]c12
- survivor count (T/C endpoint: mean tumor weight (est.), dose: 3.12 mg/kg/injection, schedule: Q01DX011 (ip), vehicle: other, higher T/C = larger tumour): 5 of 8
- survivor count (T/C endpoint: mean tumor weight (est.), dose: 25.0 mg/kg/injection, schedule: Q01DX011 (ip), vehicle: other, higher T/C = larger tumour): 5 of 8
- survivor count (T/C endpoint: mean tumor weight (est.), dose: 100.0 mg/kg/injection, schedule: Q01DX011 (ip), vehicle: other, higher T/C = larger tumour): 2 of 8
- survivor count (T/C endpoint: mean tumor weight, dose: 25.0 mg/kg/injection, schedule: Q01DX011 (ip), vehicle: other, higher T/C = larger tumour): 4 of 8 and 5 of 8
- survivor count (T/C endpoint: mean tumor weight, dose: 100.0 mg/kg/injection, schedule: Q01DX011 (ip), vehicle: other, higher T/C = larger tumour): 1 of 8
- T/C [1]: 129 % of control [6 of 8 alive]
- survivor count [1]: 5 of 8
- T/C [2]: 127 % of control [6 of 8 alive]
- survivor count [2]: 7 of 8
- survivor count (T/C endpoint: median survival time, dose: 25.0 mg/kg/injection, schedule: Q01DX011 (ip), vehicle: other, higher T/C = longer survival): 4 of 8 and 5 of 8 (2×)
- T/C [3]: 148 % of control [6 of 8 alive]
- survivor count [3]: 6 of 8
- survivor count (T/C endpoint: median survival time, dose: 100.0 mg/kg/injection, schedule: Q01DX011 (ip), vehicle: other, higher T/C = longer survival): 1 of 8 and 2 of 8
- survivor count (T/C endpoint: median survival time, dose: 200.0 mg/kg/injection, schedule: Q01DX011 (ip), vehicle: other, higher T/C = longer survival): 0 of 8
- survivor count (T/C endpoint: median survival time, dose: 400.0 mg/kg/injection, schedule: Q01DX011 (ip), vehicle: other, higher T/C = longer survival): 0 of 8

Compound: O=[N+]([O-])c1cc([N+](=O)[O-])c(Nn2c3ccccc3c3ccccc32)c([N+](=O)[O-])c1
- survivor count (T/C endpoint: median survival time, dose: 100.0 mg/kg/injection, schedule: Q01DX011 (ip), vehicle: saline with Tween-80, higher T/C = longer survival): 1 of 8

Compound: COc1cccc2c1C(=O)c1c(O)c3c(c(O)c1C2=O)C[C@@](O)(C(=O)CO)C[C@@H]3OC1CC(N)C(O)C(C)O1 (stereo not given in full)
- T/C (T/C endpoint: median survival time, dose: 0.5 mg/kg/injection, schedule: Q01DX011 (ip), vehicle: water, evaluated on day 12, higher T/C = longer survival): 100 % of control
- T/C (T/C endpoint: median survival time, dose: 0.5 mg/kg/injection, schedule: Q01DX011 (ip), vehicle: water, evaluated on day 40, higher T/C = longer survival): 102 % of control [7 of 8 alive]
- T/C (T/C endpoint: median survival time, dose: 0.5 mg/kg/injection, schedule: Q01DX011 (ip), vehicle: water, evaluated on day 48, higher T/C = longer survival): 100 and 116 % of control
- T/C (T/C endpoint: median survival time, dose: 1.0 mg/kg/injection, schedule: Q01DX011 (ip), vehicle: water, evaluated on day 12, higher T/C = longer survival): 111 % of control
- T/C (T/C endpoint: median survival time, dose: 1.0 mg/kg/injection, schedule: Q01DX011 (ip), vehicle: water, evaluated on day 40, higher T/C = longer survival): 115 % of control
- T/C (T/C endpoint: median survival time, dose: 1.0 mg/kg/injection, schedule: Q01DX011 (ip), vehicle: water, evaluated on day 48, higher T/C = longer survival): 96 and 134 % of control
- T/C (T/C endpoint: median survival time, dose: 1.08 mg/kg/injection, schedule: Q03HX008 (ip), vehicle: water, higher T/C = longer survival): 128 % of control [7 of 8 alive]
- survivor count (T/C endpoint: median survival time, dose: 1.8 mg/kg/injection, schedule: Q03HX008 (ip), vehicle: water, higher T/C = longer survival): 0 of 8
- T/C (T/C endpoint: median survival time, dose: 2.0 mg/kg/injection, schedule: Q01DX011 (ip), vehicle: water, evaluated on day 12, higher T/C = longer survival): 42 % of control
- T/C (T/C endpoint: median survival time, dose: 2.0 mg/kg/injection, schedule: Q01DX011 (ip), vehicle: water, evaluated on day 48, higher T/C = longer survival): 100 % of control [8 of 10 alive]
- survivor count (T/C endpoint: median survival time, dose: 2.0 mg/kg/injection, schedule: Q01DX011 (ip), vehicle: water, higher T/C = longer survival): 1 of 8 and 10 of 10
- survivor count (T/C endpoint: median survival time, dose: 3.0 mg/kg/injection, schedule: Q03HX008 (ip), vehicle: water, higher T/C = longer survival): 0 of 8
- T/C [4]: 30 % of control
- survivor count [4]: 0 of 10, 0 of 8, 3 of 10
- T/C [5]: 27 % of control
- survivor count [5]: 0 of 10 and 0 of 8

Compound: COC1=C(N)C(=O)c2nc(-c3nc(C(=O)O)c(C)c(-c4ccc(OC)c(OC)c4O)c3N)ccc2C1=O
- survivor count (T/C endpoint: median survival time, dose: 0.1 mg/kg/injection, schedule: Q01DX009 (ip), vehicle: saline, higher T/C = longer survival): 10 of 10
- survivor count (T/C endpoint: median survival time, dose: 0.12 mg/kg/injection, schedule: Q01DX011 (ip), vehicle: saline, higher T/C = longer survival): 8 of 8
- survivor count (T/C endpoint: median survival time, dose: 0.2 mg/kg/injection, schedule: Q01DX009 (ip), vehicle: saline, higher T/C = longer survival): 10 of 10
- survivor count (T/C endpoint: median survival time, dose: 0.2 mg/kg/injection, schedule: Q01DX011 (ip), vehicle: other, higher T/C = longer survival): 9 of 10
- survivor count (T/C endpoint: median survival time, dose: 0.25 mg/kg/injection, schedule: Q01DX011 (ip), vehicle: saline, higher T/C = longer survival): 4 of 8
- survivor count (T/C endpoint: median survival time, dose: 0.4 mg/kg/injection, schedule: Q01DX009 (ip), vehicle: saline, higher T/C = longer survival): 10 of 10
- survivor count (T/C endpoint: median survival time, dose: 0.4 mg/kg/injection, schedule: Q01DX011 (ip), vehicle: other, higher T/C = longer survival): 10 of 10
- survivor count (T/C endpoint: median survival time, dose: 0.5 mg/kg/injection, schedule: Q01DX009 (ip), vehicle: saline, higher T/C = longer survival): 10 of 10
- survivor count (T/C endpoint: median survival time, dose: 0.5 mg/kg/injection, schedule: Q01DX011 (ip), vehicle: other, higher T/C = longer survival): 10 of 10
- survivor count (T/C endpoint: median survival time, dose: 0.8 mg/kg/injection, schedule: Q01DX009 (ip), vehicle: saline, higher T/C = longer survival): 10 of 10
- survivor count (T/C endpoint: median survival time, dose: 0.8 mg/kg/injection, schedule: Q01DX011 (ip), vehicle: other, higher T/C = longer survival): 9 of 10
- survivor count (T/C endpoint: median survival time, dose: 1.0 mg/kg/injection, schedule: Q01DX009 (ip), vehicle: saline, higher T/C = longer survival): 8 of 10
- survivor count (T/C endpoint: median survival time, dose: 1.0 mg/kg/injection, schedule: Q01DX011 (ip), vehicle: other, higher T/C = longer survival): 10 of 10
- survivor count (T/C endpoint: median survival time, dose: 2.0 mg/kg/injection, schedule: Q01DX009 (ip), vehicle: saline, higher T/C = longer survival): 4 of 10
- survivor count (T/C endpoint: median survival time, dose: 2.0 mg/kg/injection, schedule: Q01DX011 (ip), vehicle: other, higher T/C = longer survival): 10 of 10
- survivor count (T/C endpoint: median survival time, dose: 4.0 mg/kg/injection, schedule: Q01DX009 (ip), vehicle: saline, higher T/C = longer survival): 0 of 10
- survivor count (T/C endpoint: median survival time, dose: 4.0 mg/kg/injection, schedule: Q01DX011 (ip), vehicle: other, higher T/C = longer survival): 10 of 10
- survivor count (T/C endpoint: median tumor weight (est.), dose: 0.25 mg/kg/injection, schedule: Q01DX011 (ip), vehicle: saline, higher T/C = larger tumour): 4 of 8
